PMC11260088 (Proceedings of the National Academy of Sciences of the …, 2024)

Columns and labels:
Test in all cases: MIC, broth microdilution
B. subtilis 168 = format: cell-based; conditions: LB + 0.3 mM ZnSO4, 37 °C, 18 h, median of min. triplicates
S. pneumoniae 153 = format: cell-based; conditions: footnote: LB + 0.3 mM ZnSO4, method: TSB + 0.3 M ZnSO4 + 5% lysed horse blood, 37 °C, 5% CO2, 24 h
Procedure, shortened: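 Colonies from fresh blood agar were suspended directly in ZnSO4-supplemented TSB to OD600 0.5, then diluted to 10^6 CFU/mL in the same broth with 5% lysed horse blood. Compound two-fold dilutions were made in that medium. Incubation ran 24 h at 37 °C under 5% CO2 with shaking. MIC was read visually as the median of at least triplicates.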

S. aureus USA300 (MRSA) = format: cell-based, Staphylococcus aureus; conditions: LB + 0.3 mM ZnSO4, 37 °C, 18 h, median of min. triplicates

SMILES: CN[C@H](CC(C)C)C(=O)N[C@H]1C(=O)N[C@@H](CC(N)=O)C(=O)N[C@H]2C(=O)N[C@H]3C(=O)N[C@H](C(=O)N[C@H](C(=O)O)c4cc(O)cc(O)c4-c4cc3ccc4O)[C@H](O)c3ccc(c(Cl)c3)Oc3cc2cc(c3O[C@@H]2O[C@H](CO)[C@@H](O)[C@H](O)[C@H]2O[C@H]2C[C@](C)(N)[C@H](O)[C@H](C)O2)Oc2ccc(cc2Cl)[C@H]1O [Vancomycin]
- MIC B. subtilis 168 (B. subtilis 168): 0.25 µg/mL
- MIC S. pneumoniae 153 (S. pneumoniae 153): 0.5 µg/mL
- MIC S. aureus USA300 (MRSA) (S. aureus USA300 (MRSA)): 2 µg/mL
